Screen size: about 31,000 sequences; about 1,400 (4.5%) were called active.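 How the source made its calls: active means median seed-adjusted z-score above 1 or below -1; inactive means the rest.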 This is one part of the list.

A short description of this assay: Novel Modifiers of Survival Motor Neuron (SMN) Protein: Gene Identification via Genome-wide siRNA Screen.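 Further: luminescence tracks full-length SMN protein made from the SMN2 reporter.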 As to conditions: HEK293T SMN2-luciferase reporter, siRNA knockdown, 72 h; actives lie on both sides. Summed up: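 HEK293T cells stably carrying an SMN2 promoter/splicing cassette–luciferase reporter were reverse-transfected with 1 pmol siRNA per well (druggable-genome library, 3 siRNAs per gene) and grown 72 h at 37 °C. Luminescence, normalized to negative-control siRNA and log10-transformed, was scored as MAD.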
A general note: Reporter assays use an easily measured gene product as a stand-in for the process of interest.
In the case of GAACUUAACACUAACAGAUTT against HAO2, the median seed-adjusted z-score is inactive: 0.039. With CUCUGAGUAUUGACAGAUATT against EDNRB the figure was inactive: 0.119; with GCCUCUGUAUGGAGUGAUUTT against FFAR2, inactive: 0.146; with GGACUUCUGUGGACCUUAUTT against SLC2A2, inactive: -0.498. In the case of GACAUUUCCAUUUCGAAUATT against GPR87, the median seed-adjusted z-score is inactive: 0.237. With AGUCCUGUCUGAGCCCUGATT against TSC22D3 the figure was inactive: 0.0129. With GCCUAUGAAUUUUCGCAAUTT against SERPINA10 the figure was inactive: 0.0233; with GGAGUGCUAGAAUCUACUATT against HEPH, inactive: -0.293; with ACCAAGCCGUGACCAAGGATT against NOXA1, inactive: -0.441. Under GACGGACAGUCAAACCUAATT against KLHL18 stands inactive: -0.126; under ACGUCGUUCGAGUUCCUAATT against GTF2F1, inactive: -0.556; under GCCUCUAUGCUACAAGAUUTT against TBX22, inactive: 0.0269. For the sequence UGGAUAUGUGGGAAAAUAATT against GEM, the median seed-adjusted z-score was inactive: 0.018. Under AACUUGUAUUCUUAGGUUUTT against SAR1A stands inactive: 0.0213; under GAAACGAACUGGGCAGUAUTT against FGF2, inactive: 0.0208; under GGAUCCAGUUGCAAUGAUATT against ATG16L1, inactive: -0.187. Under CAACAAUUGUGCGAAGAUUTT against TRAF5 stands inactive: 0.598; under AGAGGAACUUUAUUCUUGATT against HNRNPUL2, inactive: -0.0273. With GCUUUGAACCCGGUGCAGATT against WNT5B the figure was inactive: 0.72. Regarding AGAAUAAAUUAUUAGCUGATT against BET1, the median seed-adjusted z-score is inactive: 0.394. Take CCCUGUUCGUGUGACACUATT against SPRED1: the median seed-adjusted z-score was inactive: 0.387. With CAGCUGCUAUCAGAACGGATT against APBA2 the figure was active: 1.66. On to GCUAUAAUGCUACAACAAATT against KLHL2, for which the median seed-adjusted z-score is inactive: 0.

Take CUGUUGUCCUCUAUCCUUATT against TM7SF4: the median seed-adjusted z-score was inactive: 0.0246. With GAGAAGAUGUUGACGCGAATT against TRPM4 the figure was inactive: 0.0519; with GAACUGGUCUUUAAGGACATT against SRL, inactive: 0.148. Consider GCCUGGAACUCGUUAGCAATT against TRMT11, for which the median seed-adjusted z-score was inactive: -0.707.

On to GCUCAGCUCUGGUACUUUATT against GTF2H4, for which the median seed-adjusted z-score was inactive: -0.261. On to AAACAACCAUGAGAUCAGATT against STOML2, for which the median seed-adjusted z-score was inactive: -0.264. On to AGAUGUUUCUAAGCAGUGUTT against TFAP2E, for which the median seed-adjusted z-score is inactive: 0.243. With CAAGAAGGCUGGAACGGAATT against APOA2 the figure was inactive: -0.297; with GGAACAUCAGGGACAACGATT against TNPO2, inactive: 0.0785. Under CCUUAUAAAUGCGAUUUAUTT against ZNF445 stands inactive: -0.0752; under CAAAGUGAAUGCUGACAUATT against NSDHL, inactive: 0.716; under GACCUAACCAAGCACCAGATT against RAB25, inactive: -0.04.

For the sequence GCUUGGUUAUCUCCAUUUUTT against PIGH, the median seed-adjusted z-score is inactive: -0.327. Take GUACCUUUUCCAAACCAAATT against SETD8: the median seed-adjusted z-score is active: -1.52. Under AGACUUUGGUUUACAUACATT against ATG4B stands inactive: -0.703; under GCAUUUUCCGCCUACCACATT against POLM, active: -1.55. With GCACAGAAUUCUCCACCCATT against PHYHD1, the median seed-adjusted z-score is inactive: -0.37. Take CAAUAUCUCUGGUAUUGAATT against BTF3: the median seed-adjusted z-score was inactive: 0.0468. With GCACUGCUCUUGAUGAUCATT against SLC6A16 the figure was inactive: -0.461; with CAUUGUCAAAGGUCAACAATT against EPS15, inactive: -0.478.

Take CCACAACCAAUGCAUGUGATT against KRT33A: the median seed-adjusted z-score was inactive: -0.107. Under GCAAGGUACUCGAUUCAAATT against TINAG stands inactive: 0.374. Under GGACAAUCAGUUAACAUCATT against SHOC2 stands inactive: -0.403. Under GGGUAAAGUUGUGGAAUUATT against KIF21B stands inactive: 0.934; under CUGUCUCAAUACAAGAACATT against SLC28A2, inactive: -0.076; under GAAUCAAGUGAGCCCAGGATT against PILRA, inactive: 0.0834. Consider CACUAUCUCCCGGAUCACATT against LDB3, for which the median seed-adjusted z-score is inactive: 0. For the sequence GACCCGCGAUUAAACCUCATT against CHST1, the median seed-adjusted z-score is inactive: 0.181. With GUUAUUAAAGGAUAACUAUTT against SLC2A3 the figure was inactive: -0.277; with GCAUAAACACUUCACGGAATT against SRPK2, inactive: 0.654; with CUGCGAUUGUUUAUAUGCATT against CCNT2, inactive: -0.836. With GGGUUCACCUAAUAGUGCATT against OPCML the figure was inactive: -0.282; with GAGACACUUUUGCGAAGUATT against UBE3C, inactive: 0.0341; with GCACCGACAUCACUAAACATT against DDX25, inactive: 0.

In the case of GCCUACAAUUGGACCCAGATT against EPX, the median seed-adjusted z-score is inactive: 0.159. Under CCACACUGGUUAAUGAAGATT against YSK4 stands inactive: -0.181; under GACUAUUCCUGAUCCUUAUTT against AGBL2, inactive: -0.796; under GCCUCAUCGAGAUCGGGAATT against ADAMTS2, inactive: -0.338. Under CGGUUUCACAGGUUGGACATT against RAB7L1 stands inactive: 0.243. With GUUCUAACCUUAUCCAACATT against ZNF34 the figure was inactive: 0.0391. Regarding CCGUCGAUCACUAUCCAAATT against RECK, the median seed-adjusted z-score was inactive: -0.000321. Under CAAGAUACCUGGGUCAUGATT against PREX2 stands inactive: -0.0625. Under AGACCAUCCCUAACGGAUATT against PRELP stands inactive: -0.0579; under GAAGAACGGAGGAUAUAUUTT against NPAS3, inactive: -0.0316. As for CCAAGGAGUCGUCUACUUUTT against B3GAT3, the median seed-adjusted z-score is inactive: -0.00603.

The values are drawn from PubChem BioAssay AID1347426 (Functional Genomics Laboratory (NCATS/FGL), 2020).
